In publication PMC3568144, “Pseudomonas aeruginosa PA1006 Is a Persulfide-Modified Protein That Is Critical for Molybdenum Homeostasis” (PLoS ONE, 2013) one finds binding data, which are given here for eight molecules.

Amino acid sequences for entries named in this document (tags omitted).
UniProt Q9HXI8: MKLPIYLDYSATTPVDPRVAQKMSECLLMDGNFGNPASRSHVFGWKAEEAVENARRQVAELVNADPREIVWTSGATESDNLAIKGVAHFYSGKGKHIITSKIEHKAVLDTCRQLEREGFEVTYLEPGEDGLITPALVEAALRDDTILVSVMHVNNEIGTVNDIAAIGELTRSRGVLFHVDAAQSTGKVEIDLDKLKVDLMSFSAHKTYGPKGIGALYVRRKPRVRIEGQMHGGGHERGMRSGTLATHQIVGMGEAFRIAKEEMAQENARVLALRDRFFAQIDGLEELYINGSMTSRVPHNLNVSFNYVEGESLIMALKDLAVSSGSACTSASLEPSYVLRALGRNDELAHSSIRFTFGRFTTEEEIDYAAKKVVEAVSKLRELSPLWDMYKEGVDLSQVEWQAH

Sequences and labels used below:
T1: PA1006 (GFP-PFCA fusion in Pae) (Pseudomonas aeruginosa) (UniProt Q9I4W7)
T1 sequence: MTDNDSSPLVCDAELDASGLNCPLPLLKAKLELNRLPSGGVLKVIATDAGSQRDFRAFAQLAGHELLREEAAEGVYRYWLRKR

B1: PA1564/YhhP/TusA (GFP-PFCA fusion in Pae) (protein, UniProt Q9I3F3 1-79)
chain: MTHSVDAILDATGLNCPEPVMMLHNKVRDLAPGGLLKVIATDPSTRRDIPKFCVFLGHELVEQQEEAGTYLYWIRKKAD
B2: PA1505/MoaA2 (GFP-PFCA fusion in Pae) (protein, UniProt Q9I3K7 1-331)
chain: MSDSRLVDPFGRRITYLRLSVTDRCDFRCTYCMSEDMQFLPRDQVLSLEELYAVADAFIGLGVRRIRITGGEPLVRKGITGLLARLGQRAELEDLAITTNGSQLRERAAELKAAGVRRLNVSLDSLQRERFAAFTRSDRLEQVLDGIQAAREAGFERIKLNCVVQKGRNDDEILDLVEYALANQLDISFIEEMPLGSITSHRRELTLCTSDEVRAIIERRWPLTPSLARSGGPSRYYQIGDEPSRIGFISPHSNNFCGDCNRVRVTAEGKLVLCLGHEGALDLRELLRSHPGDRERLSAALVAALNLKPERHHFDAQEQVQVLRFMSMTGG
B3: PA3030/MobA (GFP-PFCA fusion in Pae) (protein, UniProt O68799 1-198)
chain: MPDSALPPCSILLLAGGRGQRMGGRDKGLIEWQGLPLIAHLHRLVRPLTDDLIVSCNRNQERYAAYADRVVSDDSRDFPGPLAGIRAGLAVARHPWLLVLPCDAPRIDRALLETLLQAAGRTPARPWMLRCGGQWEPLFSLIPTHLAEEIEHAWRQGDRSPRHVLLPLGAEAIELAAGDPRLANLNTPELLANHRELK
B4: PA3916/MoaE (GFP-PFCA fusion in Pae) (protein, UniProt Q9HX97 1-150)
chain: MAIRVQQAAFDPGQELNALHAQNVGIGAVVGFVGYVRDFNDGREVGGMFLEHYPGMTEKALGKIAAEAGQRWPLLRLEILHRIGRLEPGEPIVFVGCASAHRQAAFDACNFVMDYLKTRAPFWKKEDTAEGPRWVEGRCSDQAAAQRWEE
B5: PA3870/MoaA1 (GFP-PFCA fusion in Pae) (protein, UniProt Q9HXD6 1-329)
chain: MTDWIDGQGRQIDYLRLSVTDRCDFRCVYCMAEDMRFLPRQQVLTLEEIERVARLFVAGGVRKLRLTGGEPLVRPGIVGLCERLAALPGLRELCMTSNGSQLVRYARPLYDAGLSRLNISLDTLDPLRFRAITRNGELDKVLAGIDAAQAAGFRRIKLNAVVMKGRNADEVPALVDFAIARGLDISFIEEMPLGQVGRERGESFCSSDEVRALIAQRHALLDSAEQSGGPARYVRLVEHPQTRIGFISPHSHNFCATCNRLRLTVEGRLLLCLGHEHSLDLRALLRRHPLHDGPLLEAIGEALQRKPARHEFSAAGEVQVLRFMNMSGG
B6: PA3873/NarJ (GFP-PFCA fusion in Pae) (protein, UniProt G3XCY9 1-246)
chain: MNDHSQLFRLLALLLDYPRAELREESLGLHALIRTCELPEALRDGLAALLNELCQGDLLDVQARYDGLFERGRSVSLLLFEHVHGESRDRGQAMVDLLDRYTGAGLQIDVPELPDYLPLYLEYLSLLPFAAASEGLAEVAHILGLLALRLEERGSAYAAIFEALLELGGERPDLGALRRDQAQEQRDDSLEAIDRAWEETPVSFTDPAGGCPSSSGRRPTASTEQPLQWVAQPVPQMQYRAAREGV
B7: PA3874/NarH (GFP-PFCA fusion in Pae) (protein, UniProt G3XD87 1-513)
chain: MKIRSQVGMVLNLDKCIGCHTCSITCKNVWTSREGMEYAWFNNVETKPGIGYPKEWENQEKWKGGWVRAADGSIRPRIGGKFRVLANIFANPDLPEIDDYYEPFDFDYQHLHTAPKAEHQPVARPRSLVSGQRMEKIEWGPNWEEILGTEFAKRRKDKNFDQVQADIYGEYENTFMMYLPRLCEHCLNPACVASCPSGAIYKREEDGIVLIDQDKCRGWRMCISGCPYKKIYFNWKSGKSEKCIFCYPRIEAGQPTVCSETCVGRIRYLGVLLYDADRIHEVASCENERELYEKQLEIFLDPFDPAVIAQARKDGVADSVIEAAQKSPVYKLAMDWKLALPLHPEYRTLPMVWYVPPLSPIQNAAAEGHIGSDGVIPDVESLRIPVQYLANLLTAGDTAPVLLALKRLLAMRAYKRAEHVEGRQDLEVLAKVGLSVEQVEEMYRYLAIANYEDRFVIPSAHREEALSDAFAERSGCGFSFGNGCSGGSNSAVNLFGGKPTNRRDVIQVVQIQE
B8: PA3918/MoaC (GFP-PFCA fusion in Pae) (protein, UniProt Q9HX95 1-160)
chain: MLTHLDSQGRANMVDVTEKAVTSREATAEAVVRMRPETLQLIQDGGHPKGDVFAVARIAGIQAAKRTHELIPLCHPLLLTSVKLELQAEAPDAVRIRARCRLAGQTGVEMEALTAASVAALTIYDMCKAVDRGMVIEQVQLLEKLGGKSGHYRKEEEGQA

Results are given in words; binding and its absence hold for the method and conditions named. Binding seen in cells or lysates may run through a third protein. Some results given as binding are weak or reduced against the parent protein; the word gives no strength. Where a sequence is shown, tags or fusion partners need not be part of it.

The target of the first test is PA3814/IscS (GFP-PFCA fusion in Pae) (Pseudomonas aeruginosa) (UniProt Q9HXI8). Briefly: split reporter; GFP protein fragment complementation assay (GFP-PFCA) in P. aeruginosa cells; NGFP fusion from pEX1.8 (IPTG), CGFP fusion from the chromosome (arabinose); scored by eye with fluorescence microscopy.
On to B1, for which the binding entry was “binds”.

For another test, the target named is T1, PA1006 (GFP-PFCA fusion in Pae) (Pseudomonas aeruginosa). The test is described as above.
For the molecule B2, the binding result is listed as “binds”.

For the molecule B3, the binding entry is reported as “binds”.

Turning to B4, the binding entry is on record as “no binding”. Same read-out and setting: the value for B5 was “binds”; that for B6 was “binds”. In the case of B1, the binding result is recorded as “binds”. Still for that read-out and setting: the value for B7 was “binds”; that for B8 was “binds”.
